Test results: PubChem BioAssay AID248 (DTP/NCI, 2004)
The list does not hold the whole screen: it gathers tests that were run many times, whatever their T/C, doses with no T/C, and many T/C values between a quarter and a half above the control. Other doses and runs of a compound stand elsewhere. T/C: endpoint of the treated group in % of that of the vehicle group. Some entries give survivors of the animals treated and no T/C: the source holds a T/C of zero for them, seemingly a mark for toxic or unscored doses. Some survivor counts are full or nearly so, which does not show that the dose was tolerated: survival well below the control is almost never listed, so the zero probably covers shortened survival too. Counts of survivors are from the toxicity check (mostly the fifth day) where no day follows; animals may have died later. Schedule codes are those of the source, taken here to give the interval after Q, in days (D) or hours (H), and the number of doses after X. Some entries were tested several times; the values are given in rising order. Where survival is the endpoint, the PubChem record calls one and a half times the control and up active, and a quarter to a half above the control has no call in these data; cut-offs in other NCI protocols can differ. Some T/C values are followed by the survivors on the day toxicity was checked, most often the fifth; where none is given, no animal had died by that day. Some schedule codes hold Z or #, which are not explained here.

System: L1210 leukemia ip in BDF1 mice, survival T/C
Experiment: NCI In Vivo Anticancer Drug Screen. Data for tumor model L1210 Leukemia (intraperitoneal) in B6D2F1 (BDF1) mice
Settings: T/C endpoint: mean survival time, higher T/C = longer survival
[1] = dose: 200.0 mg/kg/injection, schedule: Q04DX003 (ip), vehicle: saline
[2] = dose: 400.0 mg/kg/injection, schedule: Q04DX003 (ip), vehicle: saline
[3] = dose: 400.0 mg/kg/injection, schedule: Q04DX002 (ip), vehicle: Klucel (hydroxypropylcellulose) (HPC)
[4] = dose: 100.0 mg/kg/injection, schedule: Q01DX009 (ip), vehicle: saline with Tween-80
[5] = dose: 200.0 mg/kg/injection, schedule: Q04DX003 (ip), vehicle: saline with Tween-80
[6] = dose: 400.0 mg/kg/injection, schedule: Q04DX003 (ip), vehicle: saline with Tween-80
[7] = dose: 100.0 mg/kg/injection, schedule: Q01DX001 (ip), vehicle: other
[8] = dose: 100.0 mg/kg/injection, schedule: Q01DX001 (ip), vehicle: saline
[9] = dose: 200.0 mg/kg/injection, schedule: Q01DX001 (ip), vehicle: saline
[10] = dose: 400.0 mg/kg/injection, schedule: Q01DX001 (ip), vehicle: other
[11] = dose: 400.0 mg/kg/injection, schedule: Q01DX001 (ip), vehicle: saline
[12] = dose: 400.0 mg/kg/injection, schedule: Q04DX003 (ip), vehicle: Klucel (hydroxypropylcellulose) (HPC)
[13] = dose: 200.0 mg/kg/injection, schedule: Q01DX009 (ip), vehicle: saline with Tween-80
[14] = dose: 400.0 mg/kg/injection, schedule: Q01DX009 (ip), vehicle: saline with Tween-80

How did the survivor count (dose: 12.5 mg/kg/injection, schedule: Q04DX003 (ip), vehicle: saline) turn out when `C#CCn1c(=O)c2c(ncn2C)n(C)c1=O` was run?
Its survivor count is 1 of 3.

What about the survivor count (dose: 25.0 mg/kg/injection, schedule: Q04DX003 (ip), vehicle: saline) of the same compound?
The survivor count was 0 of 3.

What about the survivor count (dose: 100.0 mg/kg/injection, schedule: Q04DX003 (ip), vehicle: saline) of the same compound?
The survivor count was 2 of 3.

What about the survivor count [1] of the same compound?
The survivor count was 0 of 3.

And the survivor count [2]?
Its survivor count is 0 of 3.

Which results are given for `CNC(=N)c1ccc(NC(=N)c2ccc(NC(=N)c3ccc(NC(=N)c4ccc(C(=N)NC)cc4)cc3)cc2)cc1`?
T/C (dose: 8.0 mg/kg/injection, schedule: Q01DX015 (ip), vehicle: water): 128 % of control; T/C (dose: 11.0 mg/kg/injection, schedule: Q01DX Z (ip), vehicle: water): 147 % of control; T/C (dose: 15.0 mg/kg/injection, schedule: Q01DX015 (sc), vehicle: water): 139 % of control; survivor count (dose: 33.0 mg/kg/injection, schedule: Q01DX015 (ip), vehicle: water): 0 of 6; survivor count (dose: 37.0 mg/kg/injection, schedule: Q01DX015 (sc), vehicle: water): 1 of 10; survivor count (dose: 60.0 mg/kg/injection, schedule: Q01DX001 (ip), vehicle: water): 0 of 6; survivor count (dose: 66.0 mg/kg/injection, schedule: Q01DX015 (ip), vehicle: water): 0 of 6

`COC(=O)/C=C(\C)Nc1ccc(NC(C)=O)cc1` was tested. Which survivor count (dose: 400.0 mg/kg/injection, schedule: Q04DX003 (ip), vehicle: acetone) did it give?
Its survivor count is 6 of 6.

How did the survivor count [3] turn out when `Nc1cc2c3c(cccc3c1Br)C(=O)OC2=O` was run?
Its survivor count is 1 of 3.

`C/C(=C\Br)CBr` was tested. Which survivor count (dose: 200.0 mg/kg/injection, schedule: Q01DX009 (ip), vehicle: acetone) did it give?
Its survivor count is 0 of 6.

And the survivor count (dose: 400.0 mg/kg/injection, schedule: Q01DX009 (ip), vehicle: acetone)?
The survivor count was 0 of 6.

`COc1cc(C(=O)N(CCCl)N=O)cc(OC)c1OC` was tested. Which survivor count (dose: 12.5 mg/kg/injection, schedule: Q01DX009 (ip), vehicle: saline with Tween-80) did it give?
Its survivor count is 6 of 6.

What about the survivor count (dose: 25.0 mg/kg/injection, schedule: Q01DX009 (ip), vehicle: saline with Tween-80) of the same compound?
The survivor count was 6 of 6.

What about the survivor count (dose: 50.0 mg/kg/injection, schedule: Q01DX009 (ip), vehicle: saline with Tween-80) of the same compound?
Its survivor count is 4 of 6.

And the survivor count [4]?
The survivor count was 0 of 6.

And the survivor count [5]?
The survivor count was 0 of 6.

And the survivor count [6]?
Its survivor count is 0 of 6.

How did the survivor count (dose: 400.0 mg/kg/injection, schedule: Q01DX001 (ip), vehicle: carboxymethylcellulose (CMC)) turn out when `Nc1csnn1` was run?
Its survivor count is 4 of 4.

For `CCCCCNCCC[P+](c1ccccc1)(c1ccccc1)c1ccccc1`, which survivor count (dose: 100.0 mg/kg/injection, schedule: Q04DX002 (ip), vehicle: saline) is on record?
Its survivor count is 3 of 3.

What about the survivor count (dose: 200.0 mg/kg/injection, schedule: Q04DX002 (ip), vehicle: saline) of the same compound?
The survivor count was 0 of 3.

And the survivor count (dose: 400.0 mg/kg/injection, schedule: Q04DX002 (ip), vehicle: saline)?
The survivor count was 0 of 3.

Which T/C (dose: 10.0 mg/kg/injection, schedule: Q01DX015 (ip), vehicle: carboxymethylcellulose (CMC)) does the source give for `COc1cc(N(CCCl)CCCl)c(OC)cc1/C=N\Nc1nnc(C)n1N` here?
Its T/C is 126 % of control [4 of 6 alive].

What about the T/C (dose: 18.0 mg/kg/injection, schedule: Q01DX015 (ip), vehicle: carboxymethylcellulose (CMC)) of the same compound?
The T/C was 141 % of control [5 of 6 alive].

And the survivor count (dose: 50.0 mg/kg/injection, schedule: Q01DX015 (ip), vehicle: carboxymethylcellulose (CMC))?
The survivor count was 6 of 6.

And the T/C (dose: 100.0 mg/kg/injection, schedule: Q01DX001 (ip), vehicle: carboxymethylcellulose (CMC))?
Its T/C is 126 % of control.

What about the T/C (dose: 150.0 mg/kg/injection, schedule: Q01DX001 (ip), vehicle: carboxymethylcellulose (CMC)) of the same compound?
Its T/C is 147 % of control.

And the T/C (dose: 200.0 mg/kg/injection, schedule: Q01DX001 (ip), vehicle: carboxymethylcellulose (CMC))?
The T/C was 147 % of control.

Which results are given for `[CH3][Sn]([CH3])=[O]`?
survivor count (dose: 50.0 mg/kg/injection, schedule: Q01DX001 (ip), vehicle: other): 2 of 4; survivor count (dose: 80.0 mg/kg/injection, schedule: Q01DX001 (ip), vehicle: other): 0 of 4; survivor count (dose: 80.0 mg/kg/injection, schedule: Q01DX001 (ip), vehicle: saline): 0 of 6; survivor count [7]: 0 of 4; survivor count [8]: 2 of 6; survivor count (dose: 200.0 mg/kg/injection, schedule: Q01DX001 (ip), vehicle: other): 0 of 4; survivor count [9]: 0 of 6; survivor count [10]: 0 of 4; survivor count [11]: 0 of 6

For `CN(C)c1ccc(C(O)C(N)=O)cc1` (configuration not stated), which survivor count [8] is on record?
Its survivor count is 0 of 6.

And the survivor count [9]?
The survivor count was 0 of 6.

What about the survivor count [11] of the same compound?
Its survivor count is 0 of 6.

`O=S(c1ccccc1)c1c(Cl)c(Cl)nc(Cl)c1Cl` (configuration not stated) was tested. Which survivor count (dose: 50.0 mg/kg/injection, schedule: Q01DX009 (ip), vehicle: Klucel (hydroxypropylcellulose) (HPC)) did it give?
Its survivor count is 0 of 6.

What about the survivor count (dose: 100.0 mg/kg/injection, schedule: Q01DX009 (ip), vehicle: Klucel (hydroxypropylcellulose) (HPC)) of the same compound?
Its survivor count is 0 of 6.

And the survivor count (dose: 200.0 mg/kg/injection, schedule: Q01DX009 (ip), vehicle: Klucel (hydroxypropylcellulose) (HPC))?
Its survivor count is 0 of 6.

And the survivor count [12]?
The survivor count was 0 of 6.

Which results are given for `CCCNCCCCCCNCCC`?
survivor count [1]: 6 of 6; survivor count [2]: 6 of 6

With `CC(C)(C)C1CCC(=O)C(Cl)C1` (configuration not stated) as the compound, how does the survivor count (dose: 400.0 mg/kg/injection, schedule: Q01DX009 (ip), vehicle: Klucel (hydroxypropylcellulose) (HPC)) read?
Its survivor count is 0 of 6.

Which survivor count [13] does the source give for `C=CC[n+]1ccccc1C` here?
Its survivor count is 0 of 3.

With `O=C1OCC/C1=C\N1CCCCC1` as the compound, how does the survivor count (dose: 200.0 mg/kg/injection, schedule: Q04DX002 (ip), vehicle: Klucel (hydroxypropylcellulose) (HPC)) read?
The survivor count was 1 of 3.

What about the survivor count [3] of the same compound?
The survivor count was 0 of 3.

For `COC(=O)CCC(=O)Nc1cccc2cnccc12`, which survivor count [1] is on record?
The survivor count was 6 of 6.

`O=C(O)c1cc2ccccc2c2cc(C(F)(F)F)ccc12` was tested. Which survivor count (dose: 300.0 mg/kg/injection, schedule: Q01DX001 (ip), vehicle: saline) did it give?
The survivor count was 2 of 6.

What does the source list for `CN(C)N=Nc1cc(Cl)cc(C(N)=O)c1Cl`?
T/C (dose: 266.0 mg/kg/injection, schedule: Q01DX009 (ip), vehicle: saline with Tween-80): 133 % of control; survivor count (dose: 600.0 mg/kg/injection, schedule: Q01DX009 (ip), vehicle: saline with Tween-80): 6 of 6

With `O=C(/C=C/c1ccccc1)NC(=S)Nc1cccc2ccccc12` as the compound, how does the T/C [4] read?
The T/C was 94 and 95 % of control [5 of 6 alive].

And the survivor count [4]?
Its survivor count is 1 of 3 and 2 of 3.

And the survivor count [13]?
Its survivor count is 0 of 3, 1 of 3, 2 of 6.

What about the survivor count [14] of the same compound?
Its survivor count is 0 of 3 and 0 of 6.

Which results are given for `O=C1CCC(=O)N1c1ccc(Cl)cc1`?
survivor count (dose: 100.0 mg/kg/injection, schedule: Q04DX003 (ip), vehicle: Klucel (hydroxypropylcellulose) (HPC)): 0 of 10; survivor count (dose: 200.0 mg/kg/injection, schedule: Q04DX003 (ip), vehicle: Klucel (hydroxypropylcellulose) (HPC)): 0 of 10; survivor count [12]: 0 of 10

`O=C(O)CSc1cc(Cl)ccc1Cl` was tested. Which survivor count [3] did it give?
The survivor count was 0 of 3.

For `O=C(NC(=S)Nc1cccc(C(F)(F)F)c1)c1cc([N+](=O)[O-])cc([N+](=O)[O-])c1`, which survivor count [4] is on record?
The survivor count was 3 of 3.

And the survivor count (dose: 100.0 mg/kg/injection, schedule: Q04DX003 (ip), vehicle: saline with Tween-80)?
The survivor count was 6 of 6.

What about the survivor count [5] of the same compound?
Its survivor count is 6 of 6.

What about the survivor count (dose: 400.0 mg/kg/injection, schedule: Q01DX001 (ip), vehicle: saline with Tween-80) of the same compound?
The survivor count was 3 of 6.

And the survivor count [14]?
The survivor count was 2 of 3 and 4 of 6.

What about the survivor count [6] of the same compound?
The survivor count was 1 of 6.

With `CCCCCCCCCCCCCCCCCCNC(=S)N/N=C/c1ccc(Cl)cc1Cl` as the compound, how does the survivor count [7] read?
The survivor count was 6 of 6.

What about the survivor count [10] of the same compound?
The survivor count was 6 of 6.

Which results are given for `O=C(Cl)c1c(Cl)c(Cl)c(C(=O)Cl)c(Cl)c1Cl`?
survivor count (dose: 100.0 mg/kg/injection, schedule: Q01DX009 (ip), vehicle: saline): 4 of 6; survivor count [1]: 6 of 6; survivor count [2]: 6 of 6
